# Percent effect of library compounds

Chains of the proteins cited; added tags and fusions are not shown.
UniProt I6X8D2, whole entry: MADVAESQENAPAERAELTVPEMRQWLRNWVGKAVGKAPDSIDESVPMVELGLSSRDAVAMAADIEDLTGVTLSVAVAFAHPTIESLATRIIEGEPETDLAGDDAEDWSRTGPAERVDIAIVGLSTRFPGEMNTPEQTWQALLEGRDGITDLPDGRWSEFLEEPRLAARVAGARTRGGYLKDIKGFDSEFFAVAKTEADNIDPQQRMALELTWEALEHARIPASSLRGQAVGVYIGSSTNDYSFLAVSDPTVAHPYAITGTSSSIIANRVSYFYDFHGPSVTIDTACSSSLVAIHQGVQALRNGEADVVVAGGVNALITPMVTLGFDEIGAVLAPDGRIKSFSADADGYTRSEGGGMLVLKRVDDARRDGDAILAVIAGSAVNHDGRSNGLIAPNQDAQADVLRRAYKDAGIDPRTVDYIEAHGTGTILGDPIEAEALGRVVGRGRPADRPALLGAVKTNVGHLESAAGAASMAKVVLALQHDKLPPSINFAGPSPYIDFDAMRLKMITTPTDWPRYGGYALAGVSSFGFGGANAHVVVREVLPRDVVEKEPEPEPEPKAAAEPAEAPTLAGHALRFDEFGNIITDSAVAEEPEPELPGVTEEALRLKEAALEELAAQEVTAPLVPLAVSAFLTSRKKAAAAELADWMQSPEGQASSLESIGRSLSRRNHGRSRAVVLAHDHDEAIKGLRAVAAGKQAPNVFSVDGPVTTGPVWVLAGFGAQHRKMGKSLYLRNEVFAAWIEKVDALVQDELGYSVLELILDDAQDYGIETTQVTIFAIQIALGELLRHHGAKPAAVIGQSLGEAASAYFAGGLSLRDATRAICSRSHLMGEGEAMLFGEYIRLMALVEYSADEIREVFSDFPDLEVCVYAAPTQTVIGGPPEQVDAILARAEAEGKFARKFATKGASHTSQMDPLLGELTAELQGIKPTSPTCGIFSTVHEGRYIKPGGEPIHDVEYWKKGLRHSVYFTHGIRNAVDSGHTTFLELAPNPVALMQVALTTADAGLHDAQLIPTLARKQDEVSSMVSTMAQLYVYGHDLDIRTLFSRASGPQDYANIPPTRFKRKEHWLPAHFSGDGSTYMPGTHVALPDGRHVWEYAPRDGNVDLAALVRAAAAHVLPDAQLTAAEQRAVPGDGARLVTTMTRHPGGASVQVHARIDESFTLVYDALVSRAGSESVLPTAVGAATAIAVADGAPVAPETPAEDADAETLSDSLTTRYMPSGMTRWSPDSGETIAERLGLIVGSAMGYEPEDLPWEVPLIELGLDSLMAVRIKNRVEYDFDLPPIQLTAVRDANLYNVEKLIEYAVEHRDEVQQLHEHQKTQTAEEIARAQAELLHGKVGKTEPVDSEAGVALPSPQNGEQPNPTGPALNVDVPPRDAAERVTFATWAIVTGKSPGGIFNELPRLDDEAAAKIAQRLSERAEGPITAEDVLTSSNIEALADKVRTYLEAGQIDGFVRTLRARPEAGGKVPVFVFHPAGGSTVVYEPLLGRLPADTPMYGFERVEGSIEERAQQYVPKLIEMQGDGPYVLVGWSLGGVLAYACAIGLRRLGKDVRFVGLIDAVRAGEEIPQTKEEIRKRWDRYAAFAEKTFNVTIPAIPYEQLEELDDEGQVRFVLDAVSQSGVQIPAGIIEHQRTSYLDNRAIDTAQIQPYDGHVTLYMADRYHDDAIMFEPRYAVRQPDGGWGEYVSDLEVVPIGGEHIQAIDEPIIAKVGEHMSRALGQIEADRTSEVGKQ
UniProt P9WNZ1, whole entry: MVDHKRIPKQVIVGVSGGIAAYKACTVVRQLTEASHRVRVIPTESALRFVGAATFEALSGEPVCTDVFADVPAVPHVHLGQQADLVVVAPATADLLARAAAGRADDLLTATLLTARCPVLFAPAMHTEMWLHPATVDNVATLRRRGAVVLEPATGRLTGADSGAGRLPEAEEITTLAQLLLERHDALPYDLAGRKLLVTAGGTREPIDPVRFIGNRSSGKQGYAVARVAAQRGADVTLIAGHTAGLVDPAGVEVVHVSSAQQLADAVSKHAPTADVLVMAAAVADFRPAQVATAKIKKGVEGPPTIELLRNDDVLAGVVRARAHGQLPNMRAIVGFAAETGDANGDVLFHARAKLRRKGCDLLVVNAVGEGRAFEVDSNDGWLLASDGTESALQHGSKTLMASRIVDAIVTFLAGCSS
UniProt P9WFT3, whole entry: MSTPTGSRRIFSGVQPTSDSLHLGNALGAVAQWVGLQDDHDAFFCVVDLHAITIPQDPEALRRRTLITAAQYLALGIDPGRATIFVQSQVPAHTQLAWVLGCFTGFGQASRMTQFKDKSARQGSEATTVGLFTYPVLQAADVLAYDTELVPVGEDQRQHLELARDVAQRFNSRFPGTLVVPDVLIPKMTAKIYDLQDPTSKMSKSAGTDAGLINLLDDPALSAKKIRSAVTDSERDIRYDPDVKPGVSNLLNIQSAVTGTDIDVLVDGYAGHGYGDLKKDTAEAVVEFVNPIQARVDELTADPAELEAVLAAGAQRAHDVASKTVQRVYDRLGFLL

Pks13 thioesterase: 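Polyketide synthase Pks13, Mycobacterium tuberculosis (UniProt I6X8D2). Enzyme assay of the thioesterase domain of polyketide synthase 13; the read-out is not stated. Compounds at 30 µM. The record gives no direction; the compounds picked for IC50 retests had high values, so higher reads as stronger inhibition. Of about 67,000 compounds tested this way, about 300 (0.46%) reached 50% or more in at least one test.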
CoaBC: 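Enzyme assay of CoaBC with a phosphate dye (Biomol Green) read at 650 nm. Target: Coenzyme A biosynthesis protein CoaBC, Mycobacterium tuberculosis (UniProt P9WNZ1). Tested at 30 µM. Direction is inferred from only a few compounds that gave an IC50; most scored high, so higher reads as stronger inhibition. Most strong results did not repeat in a second test. Size under these conditions: about 67,000 compounds, about 40 of them at 50% or above in at least one test.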
Leishmania in macrophages: 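Cell assay of Leishmania donovani living inside macrophages; the read-out is not stated. Compounds at 30 µM. Higher reads as stronger inhibition (inferred: compounds with an IC50 in retests scored well above the rest). About 69,000 compounds were tested under these conditions; 1.5% (about 1,000) showed 50% or more at least once.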
MtTrpRS: 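Tryptophan-tRNA ligase, Mycobacterium tuberculosis (UniProt P9WFT3). Enzyme assay of tryptophanyl-tRNA synthetase; the read-out is not stated. Concentration: 10 µM. Direction is not recorded; retested compounds ran higher, which suggests that high means inhibition. Size under these conditions: about 65,000 compounds, about 64 of them at 50% or above in at least one test.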

Each number is a percent effect as filed.
How 0% and 100% were set is not recorded. Most values in the screen are low, and negative values occur.
Compounds were drawn at random from those tested, without regard to their results.
Two or more numbers in one place are separate tests of the same structure; such repeats can differ widely.

CCc1cc(C(=O)N2CCCC(c3cc(=O)nc4n3CCC4)C2)no1 (centres unmarked) gave Pks13 thioesterase: -4.268%; CoaBC: 5.479%; Leishmania in macrophages: -25.01%; MtTrpRS: -5.154%. O=C(Nc1nc2c(s1)CCC2)c1cccnc1N1CCOCC1 read Pks13 thioesterase: -34.4%; CoaBC: 0.4049%; Leishmania in macrophages: 8.624%; MtTrpRS: 3.708%. With CC(C)N(CCNC(=O)N1CCCC(N(C)C)C1)C1CC1 (centres unmarked) the screen gave Pks13 thioesterase: -20.79%; CoaBC: 10.45%; Leishmania in macrophages: -1.2%; MtTrpRS: 3.717%. O=C(CC1COCCN1)N1CCC(N2CCc3ccccc3C2)CC1 (centres unmarked) read Pks13 thioesterase: 11.05%; CoaBC: -7.356%; Leishmania in macrophages: 38.55%; MtTrpRS: 2.592%.

Result for CN(C)C(=O)COCC1CN(Cc2ccoc2)Cc2ncn(C)c21.O=C(O)C(F)(F)F.O=C(O)C(F)(F)F (centres unmarked) was Leishmania in macrophages: 13.81%. Result for CC(C)c1ncc2c(n1)CN(Cc1cccc(C(N)=O)c1)CC2 was Pks13 thioesterase: -8.291%; CoaBC: 8.418%; Leishmania in macrophages: 19.22%; MtTrpRS: -3.129%. Result for Cc1ncsc1CN1CC[C@](C)(O)[C@@H](Oc2cccc(F)c2)C1 was Pks13 thioesterase: 2.738%; CoaBC: -0.9709%; Leishmania in macrophages: 16.1% and 1.144%. With COc1cc(N2C[C@@H]3COC[C@]3(COCc3cccc(C)n3)C2)ncn1 the screen gave Pks13 thioesterase: -18.86%; CoaBC: 5.398%; MtTrpRS: 2.005%.

CC(=O)N(C)Cc1nn(C)c2c1CN(Cc1ccsc1)C2.O=C(O)C(F)(F)F.O=C(O)C(F)(F)F read Leishmania in macrophages: 20.39%. For CCOC1COC2(CCN(Cc3ccc(F)cc3)CC2)C1 (centres unmarked) the result was Pks13 thioesterase: -26.58%; CoaBC: 7.336%; MtTrpRS: -2.471%. Result for CNC(=O)[C@H]1CC[C@@H]2[C@@H](CCN2CCOCc2ccccc2)O1 was Pks13 thioesterase: -15.94%; CoaBC: 2.709%; MtTrpRS: -6.296%. Cc1cnc(-c2nc(-c3cccc(CN4CCOCC4)c3)no2)cn1 read Pks13 thioesterase: -24.7%; CoaBC: 9.046%; Leishmania in macrophages: 29.36%; MtTrpRS: 3.726%.

With CC(=O)N1CCC(c2cncc(N3CCCC(O)C3)n2)CC1 (centres unmarked) the screen gave Pks13 thioesterase: 14.18%; CoaBC: 0.3681%; Leishmania in macrophages: -2.957%; MtTrpRS: -2.026%. For CN(Cc1cn2c(n1)CN(C(=O)C1CCOCC1)CC2)Cc1ccco1 the result was Pks13 thioesterase: -30.84%; CoaBC: -0.6316%; Leishmania in macrophages: -4.114% and 13.46%; MtTrpRS: 3.745%. Result for c1cncc(OC[C@@H]2CCC[C@@]23CNCCO3)c1 was Pks13 thioesterase: -15.62%; CoaBC: 5.913%; MtTrpRS: 3.4%. CCC1CN(CC(=O)N2CCC2)CCN1CCOC (centres unmarked) read Pks13 thioesterase: -11.5%; CoaBC: 3.44%; Leishmania in macrophages: 4.493%; MtTrpRS: 1.174%.

For O=C(NCc1cccnc1)C1=NN(c2ccccc2)C(=O)CN1 the result was Pks13 thioesterase: -11.25%; CoaBC: 12.78%; Leishmania in macrophages: -3.672%; MtTrpRS: -0.8382%. COc1c(NC(=O)N(C)CCOc2ccc(F)cc2)c(C)nn1C read Pks13 thioesterase: -18.81%; CoaBC: 1.071%; Leishmania in macrophages: 1.822%; MtTrpRS: -6.657%. For c1cc(COC[C@]23COC[C@H]2CN(Cc2ccncc2)C3)ccn1 the result was Pks13 thioesterase: 0.8074%; CoaBC: -0.2028%; MtTrpRS: -4.507%.

For reference, 2 entries once more:

- c1cncc(OC[C@@H]2CCC[C@@]23CNCCO3)c1 : Pks13 thioesterase: -15.62%; CoaBC: 5.913%; MtTrpRS: 3.4%
- CCc1cc(C(=O)N2CCCC(c3cc(=O)nc4n3CCC4)C2)no1 (centres unmarked) : Pks13 thioesterase: -4.268%; CoaBC: 5.479%; Leishmania in macrophages: -25.01%; MtTrpRS: -5.154%

Data taken from ChEMBL document CHEMBL3988442, “University of Dundee, Small-Polar-MMV Screening Library” (2021).